Results are given in words; binding and its absence hold for the method and conditions named. Binding seen in cells or lysates may run through a third protein. These calls come from enrichment with a bait or labelling near it, and not all partners need be listed.

Chains of the proteins cited; added tags and fusions are not shown.
UniProt Q92754: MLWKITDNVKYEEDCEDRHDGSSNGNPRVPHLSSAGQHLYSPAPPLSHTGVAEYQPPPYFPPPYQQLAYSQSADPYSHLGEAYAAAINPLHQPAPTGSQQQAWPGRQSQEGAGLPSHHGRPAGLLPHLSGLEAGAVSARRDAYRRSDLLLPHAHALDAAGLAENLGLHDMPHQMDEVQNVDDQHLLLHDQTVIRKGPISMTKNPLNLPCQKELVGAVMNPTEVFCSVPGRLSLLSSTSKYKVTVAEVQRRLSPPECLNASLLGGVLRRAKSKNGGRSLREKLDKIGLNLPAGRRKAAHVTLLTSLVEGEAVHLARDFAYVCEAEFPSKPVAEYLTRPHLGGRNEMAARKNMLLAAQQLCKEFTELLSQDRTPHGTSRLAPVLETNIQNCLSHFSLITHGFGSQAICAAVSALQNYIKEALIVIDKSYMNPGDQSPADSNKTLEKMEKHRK
UniProt O94972: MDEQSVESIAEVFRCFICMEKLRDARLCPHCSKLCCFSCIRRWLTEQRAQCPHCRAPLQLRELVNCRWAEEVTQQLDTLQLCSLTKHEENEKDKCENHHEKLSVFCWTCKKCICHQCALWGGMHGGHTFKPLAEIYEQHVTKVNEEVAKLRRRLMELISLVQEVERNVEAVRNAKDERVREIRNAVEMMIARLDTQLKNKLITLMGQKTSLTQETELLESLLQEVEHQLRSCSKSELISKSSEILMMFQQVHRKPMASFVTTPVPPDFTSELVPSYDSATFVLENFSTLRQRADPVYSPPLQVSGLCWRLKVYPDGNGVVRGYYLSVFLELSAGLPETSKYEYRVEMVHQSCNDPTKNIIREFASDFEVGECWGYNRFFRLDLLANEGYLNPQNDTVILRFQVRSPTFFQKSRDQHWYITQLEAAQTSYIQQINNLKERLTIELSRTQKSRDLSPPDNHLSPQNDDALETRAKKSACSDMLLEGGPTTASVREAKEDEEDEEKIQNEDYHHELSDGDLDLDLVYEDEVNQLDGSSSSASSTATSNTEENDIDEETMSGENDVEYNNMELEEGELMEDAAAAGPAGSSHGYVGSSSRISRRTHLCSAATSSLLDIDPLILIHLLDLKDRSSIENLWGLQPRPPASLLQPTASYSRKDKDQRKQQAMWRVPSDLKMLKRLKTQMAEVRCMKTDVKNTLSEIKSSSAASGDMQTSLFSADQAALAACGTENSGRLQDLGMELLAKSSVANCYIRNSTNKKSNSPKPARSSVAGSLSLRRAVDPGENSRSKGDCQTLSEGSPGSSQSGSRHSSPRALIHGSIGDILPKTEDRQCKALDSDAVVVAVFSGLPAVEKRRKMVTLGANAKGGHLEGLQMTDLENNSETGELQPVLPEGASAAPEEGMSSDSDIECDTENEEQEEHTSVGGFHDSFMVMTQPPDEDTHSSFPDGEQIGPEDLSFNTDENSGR

The target of the assay is Activator Protein 2 gamma (AP-2γ) (human (endogenous in MCF-7 and BT474)) (UniProt Q92754). Briefly: affinity purification with mass spectrometry; RIME: MCF-7 cells cross-linked with 1% formaldehyde for 8 min at RT; endogenous AP-2γ immunoprecipitated with anti-AP-2γ (sc12762x) on sheep anti-mouse Dynabeads; label-free LC-MS/MS; IgG control; three replicates.

Consider “Tripartite motif-containing 37 (TRIM37) (from UniProt O94972 1-964)”, for which the binding entry is given as “binds”.

The record behind these values is publication PMC9295074.
